{"source": "paper PMC12652319", "binders": {"B1": {"name": "Grb10 protein (protein, UniProt Q60760 1-621)", "chain": "MNNDINSSVESLNSACNMQSDTDTAPLLEDGQHASNQGAASSSRGQPQASPRQKMQRSQPVHILRRLQEEDQQLRTASLPAIPNPFPELTGAAPGSPPSVAPSSLPPPPSQPPAKHCGRCEKWIPGENTRGNGKRKIWRWQFPPGFQLSKLTRPGLWTKTTARFSKKQPKNQCPTDTVNPVARMPTSQMEKLRLRKDVKVFSEDGTSKVVEILTDMTARDLCQLLVYKSHCVDDNSWTLVEHHPQLGLERCLEDHEIVVQVESTMPSESKFLFRKNYAKYEFFKNPVNFFPDQMVNWCQQSNGGQAQLLQNFLNTSSCPEIQGFLQVKEVGRKSWKKLYVCLRRSGLYYSTKGTSKEPRHLQLLADLEESSIFYLIAGKKQYNAPNEHGMCIKPNKAKTEMKELRLLCAEDEQIRTCWMTAFRLLKYGMLLYQNYRIPQRKGLPPPFNAPMRSVSENSLVAMDFSGQIGRVIDNPAEAQSAALEEGHAWRKRSTRMNILSSQSPLHPSTLNAVIHRTQHWFHGRISREESHRIIKQQGLVDGLFLLRDSQSNPKAFVLTLCHHQKIKNFQILPCEDDGQTFFTLDDGNTKFSDLIQLVDFYQLNKGVLPCKLKHHCIRVAL"}}, "biological_target": "T1, Flag-Halo-tagged CTCF WT (dox-inducible rescue) (UniProt Q61164)", "T1 sequence": "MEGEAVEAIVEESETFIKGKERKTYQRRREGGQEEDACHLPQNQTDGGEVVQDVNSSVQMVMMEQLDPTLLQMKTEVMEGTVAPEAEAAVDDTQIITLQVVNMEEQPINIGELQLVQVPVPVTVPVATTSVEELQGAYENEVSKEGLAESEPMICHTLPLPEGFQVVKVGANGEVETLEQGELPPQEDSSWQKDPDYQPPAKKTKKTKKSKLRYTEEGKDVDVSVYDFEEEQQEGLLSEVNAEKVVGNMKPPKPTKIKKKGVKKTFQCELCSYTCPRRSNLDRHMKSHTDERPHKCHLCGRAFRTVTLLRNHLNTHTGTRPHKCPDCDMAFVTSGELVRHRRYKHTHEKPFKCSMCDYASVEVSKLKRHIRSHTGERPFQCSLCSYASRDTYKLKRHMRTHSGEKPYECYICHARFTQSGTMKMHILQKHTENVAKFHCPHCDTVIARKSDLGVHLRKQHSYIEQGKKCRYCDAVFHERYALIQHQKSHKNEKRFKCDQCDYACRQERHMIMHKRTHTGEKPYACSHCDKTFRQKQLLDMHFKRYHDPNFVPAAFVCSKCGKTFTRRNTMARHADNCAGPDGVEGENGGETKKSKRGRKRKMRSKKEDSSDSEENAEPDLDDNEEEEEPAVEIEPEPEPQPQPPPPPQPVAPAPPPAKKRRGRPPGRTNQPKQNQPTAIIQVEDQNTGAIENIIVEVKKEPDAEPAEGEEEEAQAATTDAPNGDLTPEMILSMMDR", "assay": "affinity purification with mass spectrometry; ChIP-MS: native anti-Flag agarose immunoprecipitation of Flag-Halo-CTCF rescues from the benzonase-digested chromatin fraction (20 mM Tris pH 8.0, 100 mM NaCl, 2 mM MgCl2), Flag peptide elution, LC-MS/MS with differential spectral count analysis", "note": "No constants are given. Whether binding was seen depends on the method and setting. Binding seen in cells or lysates may run through a third protein. These calls come from enrichment with a bait or labelling near it, and not all partners need be listed. No binding means not detected with the bait. Tags and fused reporters may be left off the sequences shown.", "data": [{"binder": "B1", "values": [{"measurement": "binding", "value": "no binding"}]}]}
